The campaign covered roughly 320,000 compounds. About 2,100 (0.66%) were called active. Listed are the inconclusive results; actives and inactives stand elsewhere. The call rests on the fitted dose curve; in most records, active means well fitted inhibition curve with a large enough effect in the signal ratio, with a control signal flat (not every such curve was filed as active); inconclusive means small, poorly fitted or top-dose-only effect, or effect the other way, or a change in a side signal; inactive means flat fitted curve, though single readings scatter; the % refers to the signal ratio. Some results for these compounds are left out of this collection, so the calls shown say nothing about other tests.
Experiment: qHTS Assay for Lipid Storage Modulators in Drosophila S3 Cells
Conditions: BODIPY lipid droplet fluorescence, 18-24 h, cells fed with added oleic acid
Potency means the concentration at half of the fitted maximal effect.

Structure (SMILES)	Potency
CN(C)c1cccc(C(=O)NCC2(N(C)C)CCCCC2)c1	inconclusive: 0.259 µM
COc1ccc(Cl)cc1C(=O)NCC1(N(C)C)CCCCC1	inconclusive: 5.8 µM
Cc1cc(C(=O)NCC2(N3CCCCC3)CCCCC2)ccc1[N+](=O)[O-]	inconclusive: 0.231 µM

Source: PubChem BioAssay AID2685 (National Center for Advancing Translational Sciences (NCATS), 2010)
